No constants are given. Whether binding was seen depends on the method and setting. Some results given as binding are weak or reduced against the parent protein; the word gives no strength.
Assays:
[1] = biological target: His-tagged intracellular region of Fas receptor (UniProt P25445); assay: SPOT peptide array, enzyme-linked blot with His-tagged Fas intracellular region at 10 µg/ml; one of the four brightest spots
[2] = biological target: His-tagged intracellular region of Fas receptor (UniProt P25445); assay: SPOT pepscan of DAXX (15mers, shift 3) on membrane, probed with His-tagged Fas intracellular region 10 µg/ml, anti-His(mouse)/anti-mouse-HRP, enzyme-linked blot
[3] = biological target: His-tagged intracellular region of Fas receptor (UniProt P25445); assay: SPOT length analysis of DAXXp-209 (shortened at the N-terminus, the C-terminus and both), probed with His-tagged Fas intracellular region 10 µg/ml, anti-His(mouse)/anti-mouse-HRP, enzyme-linked blot
[4] = biological target: His-tagged intracellular region of Fas receptor (UniProt P25445); assay: SPOT length analysis of FADDp-11 (shortened at the C-terminus, the N-terminus and both), probed with His-tagged Fas intracellular region 10 µg/ml, anti-His(mouse)/anti-mouse-HRP, enzyme-linked blot
[5] = biological target: His-tagged intracellular region of Fas receptor (UniProt P25445); assay: SPOT length analysis, enzyme-linked blot with His-tagged Fas intracellular region
[6] = biological target: His-tagged intracellular region of Fas receptor (UniProt P25445); assay: SPOT length analysis, enzyme-linked blot with His-tagged Fas intracellular region at 10 µg/ml
[7] = biological target: His-tagged intracellular region of Fas receptor (UniProt P25445); assay: SPOT peptide array, enzyme-linked blot with His-tagged Fas intracellular region at 10 µg/ml
[8] = biological target: His-tagged intracellular region of Fas receptor (UniProt P25445); assay: SPOT length analysis of DAXXp-211 (shortened at the N-terminus, the C-terminus and both), probed with His-tagged Fas intracellular region 10 µg/ml, anti-His(mouse)/anti-mouse-HRP, enzyme-linked blot
[9] = biological target: His-tagged intracellular region of Fas receptor (UniProt P25445); assay: SPOT peptide array, enzyme-linked blot with His-tagged Fas intracellular region; one of the three brightest spots
[10] = biological target: His-tagged intracellular region of Fas receptor (UniProt P25445); assay: SPOT pepscan of FADD (15mers, shift 3) on membrane, probed with His-tagged Fas intracellular region 10 µg/ml, anti-His(mouse)/anti-mouse-HRP, enzyme-linked blot

Amino acid sequences for entries named in this document (tags omitted). Residues count along the entry.
UniProt P25445, residues 191-335: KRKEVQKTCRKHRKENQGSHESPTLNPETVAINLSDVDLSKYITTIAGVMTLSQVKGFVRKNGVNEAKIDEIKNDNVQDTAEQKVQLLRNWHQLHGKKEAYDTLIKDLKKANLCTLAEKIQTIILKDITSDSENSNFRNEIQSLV

SGPPCKKSRKEKKQT [DAXXp-209]
binding [1]: binds | binding [2]: binds | binding [3]: binds

KRKLERVQSGLDL [FADDp-11 (spot no. 6)]
binding [4]: binds

KRKLERVQS [FADDp]
binding [5]: binds | binding [6]: binds | binding [4]: binds

PCKKSRKEKKQTGSG [DAXXp-210]
binding [1]: binds | binding [2]: binds

KSRKEKKQTGSGPLG [DAXXp-211]
binding [7]: binds | binding [2]: binds | binding [8]: binds

KEKKQTGSGPLGNSY [DAXXp-212]
binding [1]: binds | binding [2]: binds

LGRVGKRKLERVQSG [FADD pepscan spot no. 10]
binding [9]: binds | binding [10]: binds

VGKRKLERVQSGLDL [FADDp15]
binding [7]: binds | binding [10]: binds

RKLERVQSGLDLFSM [FADD pepscan spot no. 12]
binding [9]: binds | binding [10]: binds

Reference: US20130288979A1 (CENTRE NATIONAL DE LA RECHERCHE SCIENTIFIQUE CNRS, published 2013)
